Reference: PubChem BioAssay AID1445 (SRMLSC, 2008)
About 910 (0.41%) of roughly 220,000 compounds were called active. The inconclusive results got no clear call from the source; some entries with a clear call stand among them for comparison.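 How the source made its calls: active means primary inhibition above the hit cutoff, then over 50% inhibition at one or more dose response concentrations (cut at about 23% in these data, passing the limit was not always enough); inconclusive means conflicting primary data, or primary hits not chosen for dose response; inactive means low primary inhibition, or under 50% at every dose.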

Protein sequences, listed by entry. Tags and fused reporters are not part of them. Lines headed by an entry give the natural chain unless they say otherwise; changes in a name come on top.
UniProt O96935: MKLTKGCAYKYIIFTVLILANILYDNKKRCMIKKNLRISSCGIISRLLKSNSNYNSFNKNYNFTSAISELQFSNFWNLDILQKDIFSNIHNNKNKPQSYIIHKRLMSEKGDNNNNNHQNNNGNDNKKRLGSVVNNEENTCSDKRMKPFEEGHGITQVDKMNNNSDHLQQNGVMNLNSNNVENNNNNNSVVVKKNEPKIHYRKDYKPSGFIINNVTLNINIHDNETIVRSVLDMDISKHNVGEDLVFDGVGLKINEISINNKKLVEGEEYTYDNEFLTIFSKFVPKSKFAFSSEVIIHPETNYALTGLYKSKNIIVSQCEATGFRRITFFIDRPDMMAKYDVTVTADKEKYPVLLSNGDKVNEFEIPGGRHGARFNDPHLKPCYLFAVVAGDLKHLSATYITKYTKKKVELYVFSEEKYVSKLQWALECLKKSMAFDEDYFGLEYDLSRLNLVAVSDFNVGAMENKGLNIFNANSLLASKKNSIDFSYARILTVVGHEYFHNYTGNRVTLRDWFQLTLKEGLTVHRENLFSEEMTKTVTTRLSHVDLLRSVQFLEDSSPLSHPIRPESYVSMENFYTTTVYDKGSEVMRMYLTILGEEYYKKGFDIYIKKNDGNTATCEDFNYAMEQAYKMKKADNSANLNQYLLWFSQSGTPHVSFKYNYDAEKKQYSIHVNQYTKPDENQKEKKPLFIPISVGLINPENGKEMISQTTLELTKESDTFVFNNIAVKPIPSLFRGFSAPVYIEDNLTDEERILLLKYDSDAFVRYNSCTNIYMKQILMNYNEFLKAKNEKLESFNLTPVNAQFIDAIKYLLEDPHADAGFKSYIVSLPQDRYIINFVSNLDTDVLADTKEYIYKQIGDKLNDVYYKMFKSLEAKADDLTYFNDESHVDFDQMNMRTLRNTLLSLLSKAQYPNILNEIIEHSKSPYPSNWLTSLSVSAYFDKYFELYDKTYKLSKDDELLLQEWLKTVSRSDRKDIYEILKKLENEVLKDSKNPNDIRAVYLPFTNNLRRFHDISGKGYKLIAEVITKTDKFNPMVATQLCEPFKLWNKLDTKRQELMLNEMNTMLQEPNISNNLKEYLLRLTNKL

Target: Aminopeptidase N (Plasmodium falciparum (isolate 3D7)) (UniProt O96935)
Assay: P. falciparum M1AAP inhibitors, biochemical, fluorogenic H-Leu-NHMec substrate, 1536-well (AID 1445);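 further: plate controls were DMSO full reaction for no effect and no enzyme background for full effect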
Details: recombinant M1AAP, H-Leu-NHMec fluorogenic kinetic assay; at 30 µM, active compounds read high unless noted

Q: For `CCC(=O)Oc1oc(-c2ccccc2)nc1C=Nc1ccccc1OC`, which inhibition is on record?
A: active: 24.3%

Q: For `CCCCOCCCn1c(-c2ccco2)nc2nc3ccccc3nc21`, which inhibition is on record?
A: inconclusive: 27.3%

Q: How did the inhibition turn out when `CC1CC(C)CN(C(=O)c2cccc(S(=O)(=O)Nc3cc(C(F)(F)F)ccc3Cl)c2)C1` (configuration not stated) was run?
A: inconclusive: 27.6%

Q: For `Cc1cc2ncn(-c3ncnc4sc(C)c(C)c34)c2cc1C`, which inhibition is on record?
A: inconclusive: 25.6%

Q: With `CCOC(=O)c1c(N2C(=O)Nc3ccccc3N2O)sc2c1CCCCC2` as the compound, how does the inhibition read?
A: inconclusive: 26.6%

Q: How did the inhibition turn out when `COc1ccc(NC(=O)CCSCCC(=O)Nc2ccc(OC)cc2OC)c(OC)c1` was run?
A: inconclusive: 25.3%

Q: Which inhibition does the source give for `CCC(C)Sc1nc2c(c(=O)n1C)SC(C)C2` (configuration not stated) here?
A: active: 23.5%

Q: With `Cc1cnc(NC(=O)CSc2nnc(-c3ccncc3)n2C2CCCCC2)s1` as the compound, how does the inhibition read?
A: inactive: 4.18%

Q: Which inhibition does the source give for `O=C(O)CSCC(=O)Nc1ccc(-c2nc3ccccc3s2)cc1` here?
A: inactive: 7.28%

Q: How did the inhibition turn out when `CCCNc1ncccc1C(N)=O` was run?
A: inactive: -1.06%

Q: For `COc1ccc2c(Cl)c(C(=O)NN)sc2c1`, which inhibition is on record?
A: inconclusive: 36.5%

Q: With `O=C(O)C1Nc2c(O)cccc2C2C=CCC12` (configuration not stated) as the compound, how does the inhibition read?
A: inconclusive: 27.8%

Q: With `Cc1ccc[n+](/C(=C\C(=C=[N-])C#N)C(=O)c2ccc(Cl)cc2)c1` as the compound, how does the inhibition read?
A: inconclusive: 27.7%

Q: Which inhibition does the source give for `O=C(Oc1cccc(Nc2ncnc3ccccc23)c1)c1cccnc1` here?
A: inconclusive: 24.3%

Q: `O=C1C=CC(=O)N1N(c1ccccc1)c1ccccc1` was tested. Which inhibition did it give?
A: inconclusive: 23.5%

Q: For `CCOC(=O)Cn1c(=O)c2c(nc(N3CCOCC3)n2C)n(C)c1=O`, which inhibition is on record?
A: inactive: 0.98%

Q: How did the inhibition turn out when `O=C(CSc1ncnc2sc3c(c12)CCC3)Nc1ccccc1C(=O)O` was run?
A: inconclusive: 28.2%

Q: For `Cc1ccc(N2CC(C(=O)NCCCn3ccnc3)CC2=O)cc1` (configuration not stated), which inhibition is on record?
A: inactive: -4.35%

Q: With `c1ccc(Oc2cccc(NC3=NCCC3)c2)cc1` as the compound, how does the inhibition read?
A: active: 29.3%

Q: For `O=C(O)CCc1ccc(-c2cccs2)n1NC(=O)c1ccc(Cl)cc1`, which inhibition is on record?
A: inconclusive: 20.1%

Q: With `COC(=O)c1ccc(N(C(=O)CNC(=O)c2ccco2)C(C(=O)NC2CCCC2)c2ccco2)cc1` (configuration not stated) as the compound, how does the inhibition read?
A: inactive: -1.68%

Q: Which inhibition does the source give for `Cc1ccc(S(=O)(=O)C(C#N)c2nc3ccccc3nc2N2CCCC2)cc1` (configuration not stated) here?
A: inconclusive: 15.8%

Q: Which inhibition does the source give for `O=C(NCCOc1ccccc1F)c1cc(F)c(F)cc1Cl` here?
A: inactive: 3.2%

Q: With `CCC(C)[C@H](NC(=O)Nc1ccc(C(C)=O)cc1)C(=O)OC` (some centres not stated) as the compound, how does the inhibition read?
A: inactive: -5.32%

Q: How did the inhibition turn out when `NC(=O)c1ccccc1NC(=O)c1ccccc1S(=O)(=O)c1ccccc1[N+](=O)[O-]` was run?
A: inconclusive: 24.9%

Q: Which inhibition does the source give for `CN(C(=O)c1cc2n(n1)C(C(F)(F)F)CC(c1ccco1)N2)c1ccccc1` (configuration not stated) here?
A: inactive: 2.19%

Q: With `Cn1c(=O)c2[nH]c(-c3ccccc3O)nc2n(C)c1=O` as the compound, how does the inhibition read?
A: inconclusive: 21.9%

Q: For `Oc1ccc(Br)cc1-c1cc(-c2ccco2)[nH]n1`, which inhibition is on record?
A: inconclusive: 28.3%

Q: `O=Cc1ccccc1OCCOc1ccccc1C=O` was tested. Which inhibition did it give?
A: inconclusive: 40.9%

Q: For `O=C(O)CC/C(=C\c1cc([N+](=O)[O-])ccc1Cl)c1nc2ccccc2s1`, which inhibition is on record?
A: inconclusive: 23.8%

Q: For `COc1ccc(S(=O)(=O)n2nc(OC(=O)c3ccco3)cc2N)cc1`, which inhibition is on record?
A: inconclusive: 15.3%

Q: `CC(=O)/C(C#N)=C1\NC(=O)C(Cc2cc(Cl)ccc2Cl)S1` (configuration not stated) was tested. Which inhibition did it give?
A: inconclusive: 24.8%

Q: With `CC(=O)c1ccc(S(=O)(=O)Nc2cccc(-c3cn4c(n3)SCC4)c2)cc1` as the compound, how does the inhibition read?
A: inconclusive: 24.8%

Q: `COc1ccc2[nH]c(=O)c(CN(Cc3nnnn3Cc3ccco3)C3CCCCC3)cc2c1` was tested. Which inhibition did it give?
A: inactive: 16%

Q: `CC(CCC(=O)O)C1CC[C@@]2(C)C3C(=O)CC4C(C)(C)C(O)CC[C@]4(C)C3C(=O)C[C@]12C` (some centres not stated) was tested. Which inhibition did it give?
A: inactive: 3%

Q: How did the inhibition turn out when `O=C(Cn1cnc([N+](=O)[O-])n1)N/N=C/c1ccc(O)cc1O` was run?
A: inactive: 2.52%

Q: Which inhibition does the source give for `O=C(NCc1ccc2c(c1)OCO2)C1CCCN(S(=O)(=O)c2cccs2)C1` (configuration not stated) here?
A: active: 24.9%

Q: Which inhibition does the source give for `COc1ccc(/C=C2\SC(=O)N(CCNC(=O)C3CC4C=CC3C4)C2=O)cc1` (configuration not stated) here?
A: inconclusive: 26.3%

Q: How did the inhibition turn out when `CC(C)C(=O)Nc1cccc(NC(=S)NC(=O)c2ccccc2Cl)c1` was run?
A: inconclusive: 28.2%

Q: For `COCCn1nc2cc(C(=O)NCc3cc(C(F)(F)F)cc(C(F)(F)F)c3)ccc2c1OC`, which inhibition is on record?
A: inconclusive: 25.7%

Q: How did the inhibition turn out when `COc1ccc([N+](=O)[O-])cc1N(CC(O)Cn1nnc2ccccc21)S(=O)(=O)c1ccc(C)cc1` (configuration not stated) was run?
A: active: 23.6%

Q: Which inhibition does the source give for `CNC(=O)c1cc2c(=O)n3cc(C)ccc3nc2n(C(C)C)c1=N` here?
A: inconclusive: 9.92%

Q: For `CCc1ccc(N2CC(C(=O)N/N=C/c3cc([N+](=O)[O-])ccc3O)CC2=O)cc1` (configuration not stated), which inhibition is on record?
A: inconclusive: 26%

Q: With `Cc1ccc(/C=N/Nc2nc3ccccc3s2)o1` as the compound, how does the inhibition read?
A: inconclusive: 24.2%

Q: How did the inhibition turn out when `COc1ccc(NC(=S)NC(=O)c2ccccc2Cl)cc1` was run?
A: inconclusive: 23.5%

Q: For `COc1cccc(C(=O)Nc2cc(C(=O)NCCc3ccccc3)ccc2Cl)c1`, which inhibition is on record?
A: active: 24.9%

Q: How did the inhibition turn out when `O=c1cc(-c2ccc(O)cc2)oc2ccc(O)cc12` was run?
A: inconclusive: 25.8%

Q: For `CCN(c1ccccc1)S(=O)(=O)c1ccc(Cl)c(NC(=O)COC(=O)c2cc(O)c3ccccc3c2O)c1`, which inhibition is on record?
A: inconclusive: 25.2%

Q: Which inhibition does the source give for `Cc1ccc(S(=O)(=O)N2CCN(C(=O)CC(C)(C)C)CC2)cc1` here?
A: inactive: 3.77%

Q: How did the inhibition turn out when `Cc1ccc(C(=O)OCC(=O)NCCN2C(=O)CSC2=O)cc1` was run?
A: inconclusive: 23.9%

Q: `Cc1ccc2nc3c(cc(C(=O)NCCCn4ccnc4)n3C)c(=O)n2c1` was tested. Which inhibition did it give?
A: inconclusive: 34.2%

Q: For `CCOc1cc(/C=C/c2ccc3cccc([N+](=O)[O-])c3n2)cc(Cl)c1O`, which inhibition is on record?
A: inactive: 9.51%

Q: `Cc1ccc(S(=O)(=O)c2c(N)n(Cc3ccco3)c3nc4ccccc4nc23)cc1` was tested. Which inhibition did it give?
A: active: 24.7%

Q: For `CCCn1c(O)c(N=NC(=O)c2ccco2)c2ccccc21`, which inhibition is on record?
A: inconclusive: 25.6%

Q: How did the inhibition turn out when `Cc1ccc(N=Nc2c(C)[nH]n(-c3ccccc3)c2=O)c(C)c1` was run?
A: inactive: 3.7%

Q: With `Cc1[nH]c2ccccc2c1N=Nc1ccccc1C(=O)O` as the compound, how does the inhibition read?
A: inconclusive: 23.8%

Q: `CCOc1ccc(C2CC(=O)NC3=C2C(=O)CCC3)cc1Cl` (configuration not stated) was tested. Which inhibition did it give?
A: inactive: 1.99%
